PubChem BioAssay AID1508588, Peter MacCallum Cancer Centre – 2020
This is one part, drawn at random, of about 18,000 reagents tested. Over the whole deposit, 790 (4.4%) got an active call. 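Calls rest on a combination of fold-change classes in drug and vehicle arms, not all shown here.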 Unmarked entries are inactive.

Assay: 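Which gene losses make BRAF-mutant melanoma cells more responsive to vemurafenib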 (primary screen)
System: human WM266.4 melanoma cells (BRAF V600 mutant)
Reagent: siRNA pool against human genes, 40 nM
Time to read-out: 96 h from transfection to read-out
Treatment: vemurafenib 300 nM (about IC25), added 48 h after transfection, for 48 h; comparison arm got DMSO vehicle only
Read-out: 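Cell gain (DAPI nuclei at end minus before drug, mean of two replicates) and medium lactate by absorbance per cell, both as ratio to non-targeting siRNA, also grouped into fold-change classes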
Reading the numbers: cell gain with vemurafenib: higher = more cell gain than with non-targeting siRNA; lactate per cell with vemurafenib: higher = more lactate made per cell
Call rule: 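a knock-down counts as enhancing when its fold-change classes with vehicle and with vemurafenib, taken together, show a stronger drug effect on cell gain or lactate per cell; exact class pairs not stated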
Meaning of the calls: active = enhances vemurafenib effect; inactive = no enhancement seen

LINGO2 [SID134319942] — cell gain with vemurafenib: 0.47; lactate per cell with vemurafenib: 1.97
GADD45G [SID134310141] — cell gain with vemurafenib: 0.51; lactate per cell with vemurafenib: 0.85
GRSF1 [SID152155609] — cell gain with vemurafenib: 0.18; lactate per cell with vemurafenib: 1.99
KCNIP3 [SID135623313] — cell gain with vemurafenib: 0.6; lactate per cell with vemurafenib: 1.52
CSNK1G1 [SID152156369] — cell gain with vemurafenib: 0.72; lactate per cell with vemurafenib: 0.93
CENPW [SID135625269] — cell gain with vemurafenib: 0.41; lactate per cell with vemurafenib: 0.62
MTMR7 [SID135621493] — cell gain with vemurafenib: 0.88; lactate per cell with vemurafenib: 0.16
DPPA5 [SID152154995] — cell gain with vemurafenib: 0.42; lactate per cell with vemurafenib: 1.56
VWA3B [SID152150501] — cell gain with vemurafenib: 0.77; lactate per cell with vemurafenib: 0.66
SLITRK3 [SID134324137] — cell gain with vemurafenib: 0.31 (active); lactate per cell with vemurafenib: 0
HCP5 [SID134323803] — cell gain with vemurafenib: 0; lactate per cell with vemurafenib: 1.12
MORC4 [SID152150677] — cell gain with vemurafenib: 0.7; lactate per cell with vemurafenib: 0.53
QSER1 [SID135622745] — cell gain with vemurafenib: 0.29; lactate per cell with vemurafenib: 1.44
CD52 [SID135623761] — cell gain with vemurafenib: 0.32; lactate per cell with vemurafenib: 1.94
THSD4 [SID152147857] — cell gain with vemurafenib: -0.04; lactate per cell with vemurafenib: 3
MRPL19 [SID152149113] — cell gain with vemurafenib: 0.94; lactate per cell with vemurafenib: 0.7

Next part, starting with the last 3 of the part before.
CD52 [SID135623761] — cell gain with vemurafenib: 0.32; lactate per cell with vemurafenib: 1.94
THSD4 [SID152147857] — cell gain with vemurafenib: -0.04; lactate per cell with vemurafenib: 3
MRPL19 [SID152149113] — cell gain with vemurafenib: 0.94; lactate per cell with vemurafenib: 0.7
NOG [SID134316357] — cell gain with vemurafenib: 0.25; lactate per cell with vemurafenib: 2.12
ITGA1 [SID134313383] — cell gain with vemurafenib: 0.64; lactate per cell with vemurafenib: 1.19
LAP3 [SID135621107] — cell gain with vemurafenib: 0.53; lactate per cell with vemurafenib: 1.01
NEK3 [SID152154962] — cell gain with vemurafenib: 0.09; lactate per cell with vemurafenib: 0.97
MCUB [SID134320117] — cell gain with vemurafenib: 0.77; lactate per cell with vemurafenib: 0.68
OR6V1 [SID134329777] — cell gain with vemurafenib: 0.77; lactate per cell with vemurafenib: 0.57
FSD2 [SID152154897] — cell gain with vemurafenib: 0.53; lactate per cell with vemurafenib: 0.72
DNMT3B [SID134311770] — cell gain with vemurafenib: 0.47; lactate per cell with vemurafenib: 0.9
IL36B [SID134312893] — cell gain with vemurafenib: 0.76; lactate per cell with vemurafenib: 1.32
CYP26C1 [SID152153297] — cell gain with vemurafenib: 0.37; lactate per cell with vemurafenib: 1.16
HIVEP1 [SID152154663] — cell gain with vemurafenib: 0.98; lactate per cell with vemurafenib: 1.13
PTPN14 [SID134313377] — cell gain with vemurafenib: 0.76; lactate per cell with vemurafenib: 0.82
NELFA [SID134316446] — cell gain with vemurafenib: 0.63; lactate per cell with vemurafenib: 0.49
MAT1A [SID152153961] — cell gain with vemurafenib: 0.88; lactate per cell with vemurafenib: 0.28
PCGF3 [SID152156093] — cell gain with vemurafenib: 0.92; lactate per cell with vemurafenib: 0.83
MGMT [SID134313705] — cell gain with vemurafenib: 0.93; lactate per cell with vemurafenib: 0.64
SLURP1 [SID134317422] — cell gain with vemurafenib: 0.66; lactate per cell with vemurafenib: 1.05
GABRR1 [SID134311597] — cell gain with vemurafenib: 0.28; lactate per cell with vemurafenib: 2.01
NUP50 [SID152146975] — cell gain with vemurafenib: 0.64; lactate per cell with vemurafenib: 0.32
RBAKDN [SID134329265] — cell gain with vemurafenib: 1.05; lactate per cell with vemurafenib: 1.13
C3orf18 [SID134321836] — cell gain with vemurafenib: 0.39; lactate per cell with vemurafenib: 1.54
IQCK [SID134320405] — cell gain with vemurafenib: 0.23; lactate per cell with vemurafenib: 1.21
PSMG1 [SID134323322] — cell gain with vemurafenib: 0.77; lactate per cell with vemurafenib: 0.86
FGF9 [SID134315984] — cell gain with vemurafenib: 1.05; lactate per cell with vemurafenib: 0.52
